Measured values reported in US20250136687A1.
These are yes or no findings as the source states them, for the method shown. Some results given as binding are weak or reduced against the parent protein; the word gives no strength.

Protein sequences, listed by entry. Tags and fused reporters are not part of them. Residues count along the entry.
UniProt Q95LI5, residues 22-117: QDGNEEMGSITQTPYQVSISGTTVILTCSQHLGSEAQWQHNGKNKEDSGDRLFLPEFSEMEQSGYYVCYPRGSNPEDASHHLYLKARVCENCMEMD

Biological target: monkey CD3ε protein (monkey) (UniProt Q95LI5)
Assay: ELISA, coated antigen

Row | Binder | binding
1 | 5-40.21-H3-L1 humanized antibody (antibody, human IgG1, kappa, V domains shown) VH: EVQLVQSGAEVKKPGASVKVSCKASGYTFTSYWMHWVRQAPGQGLEWMGNTYPGSGSTNYDEKFKSRVTITVDSSASTAYMELSSLRSEDTAVYYCTRDRYGVYYFDYWGQGTTVTVSS VL: DIVMTQSPDSLAVSLGERATINCKSSQSLLNSRTRKNYLAWYQQKPGQSPKLLIYWASTRESGVPDRFSGSGSGTDFTLTISSLQAEDVAVYYCTQSYNLRTFGGGTKVEIKR | binds
2 | 6-44.5-H1-L2 humanized antibody (antibody, human IgG1, kappa, V domains shown) VH: EVQLVQSGAEVKKPGSSVKVSCKASGHTFSSHIMHWVRQAPGQGLEWMGYINPNNDRTEYSEKFKGRVTITADKSTSTAYMELSSLRSEDTAVYYCAGEAYYSNSLYAMDYWGQGTTVTVSS VL: DIVMTQSPDSLAVSLGERATINCKSSQSLFNSRTRKNYLAWYQQKPGQSPKLLIYWASTRESGVPDRFSGSGSGTDFTLTISSLQAEDVAVYYCKQSYYLRTFGGGTKVEIKR | binds
3 | 1-22.6-1-H2a-L2a humanized antibody (antibody, human IgG1, kappa, V domains shown) VH: EVQLVQSGSELKKPGASVKVSCKTSGYTFTSYGMSWVRQAPGQGLEWMGWINTYSGVPTYAQDFKGRFVFSLDTSVSTAYLQISSLKAEDTAVYYCARLKNNPFVWGQGTTVTVSS VL: DIVMTQSPDSLAVSLGERATINCRSSQLILHSSGNTYLEWYQQKPGQSPKLLIYKVSNRFSGVPDRFSGSGSGTDFTLTISSLQAEDVAVYYCFQGSHFPWTFGGGTKVEIKR | binds

Continued, values first:

Row | binding | Binder
4 | binds | 7-35.6-H2-L3 humanized antibody (antibody, human IgG1, lambda, V domains shown) VH: EVQLVESGGGLVQPGGSLKLSCAASGFTFNTYAMNWVRQASGKGLEWVGRIRSKINNYATYYGDSVKDRFTISRDDSKNTFYLQMNSLKTEDTAVYYCVIHENYGSISWFAYWGQGTLVTVSS VL: ETVVTQEPSLTVSPGGTVTLTCRSSTGAVTTSNYANWVQQKPGQAFTGLIGGTNNRAPWTPARFSGSLLGGKAALTLSGVQPEDEAEYYCALWYSNHWVFGGGTKLTVLG
5 | binds | 5-7.13-H1a-L2 humanized antibody (antibody, human IgG1, kappa, V domains shown) VH: EVQLVQSGAEVKKPGASVKVSCKASGYTFTSYWVHWVRQAPGQRLEWMGNINPSDGVTNYNEKFKSRVTITVDKSASTAYMELSSLRSEDTAVYYCTRDAYGQYYFDNWGQGTTVTVSS VL: DIVMTQTPLSLPVTPGEPASISCKSSQSLLNSRTRKNYLAWYLQKPGQSPQLLIYWASVRDSGVPDRFSGSGSGTDFTLKISRVEAEDVGVYYCIQSYYLRTFGGGTKVEIKR
6 | binds | 8-18.1-H1-L2 humanized antibody (antibody, human IgG1, kappa, V domains shown) VH: EVQLVQSGAEVKKPGASVKVSCKASGYTFTMNTMHWVRQAPGQRLEWMGYINPYSGYTKYNQIFKDRVTITADKSASTAYMELSSLRSEDTAVYYCLRGGEGVWGQGTTVTVSS VL: DVVMTQSPLSLPVTLGQPASISCKSSQSLLDSDGKTYLNWLQQRPGQSPRRLIYLVSELGSGVPDRFSGSGSGTDFTLKISRVEAEDVGVYYCWQGTHFPRTFGGGTKVEIKR
